Data reported in the supplement of paper PMC10849652.
The list shows a part of the results.

Chains of the proteins cited; added tags and fusions are not shown. Lines headed by an entry give the natural chain unless they say otherwise; changes in a name come on top.
UniProt Q9BPZ7, whole entry, looked up: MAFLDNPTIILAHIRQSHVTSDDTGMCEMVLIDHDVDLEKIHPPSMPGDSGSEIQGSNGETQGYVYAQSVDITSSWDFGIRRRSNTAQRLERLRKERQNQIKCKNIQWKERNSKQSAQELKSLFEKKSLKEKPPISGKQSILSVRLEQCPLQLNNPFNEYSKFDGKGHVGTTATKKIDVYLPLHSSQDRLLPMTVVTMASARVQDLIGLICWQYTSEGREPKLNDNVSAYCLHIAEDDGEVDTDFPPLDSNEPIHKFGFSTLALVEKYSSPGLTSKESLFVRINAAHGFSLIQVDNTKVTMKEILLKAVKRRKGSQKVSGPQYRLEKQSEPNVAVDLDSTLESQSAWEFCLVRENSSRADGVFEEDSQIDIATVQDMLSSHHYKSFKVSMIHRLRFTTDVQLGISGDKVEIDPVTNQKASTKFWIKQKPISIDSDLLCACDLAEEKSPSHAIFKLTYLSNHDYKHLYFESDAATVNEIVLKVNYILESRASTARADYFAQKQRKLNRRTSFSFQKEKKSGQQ
UniProt Q02779: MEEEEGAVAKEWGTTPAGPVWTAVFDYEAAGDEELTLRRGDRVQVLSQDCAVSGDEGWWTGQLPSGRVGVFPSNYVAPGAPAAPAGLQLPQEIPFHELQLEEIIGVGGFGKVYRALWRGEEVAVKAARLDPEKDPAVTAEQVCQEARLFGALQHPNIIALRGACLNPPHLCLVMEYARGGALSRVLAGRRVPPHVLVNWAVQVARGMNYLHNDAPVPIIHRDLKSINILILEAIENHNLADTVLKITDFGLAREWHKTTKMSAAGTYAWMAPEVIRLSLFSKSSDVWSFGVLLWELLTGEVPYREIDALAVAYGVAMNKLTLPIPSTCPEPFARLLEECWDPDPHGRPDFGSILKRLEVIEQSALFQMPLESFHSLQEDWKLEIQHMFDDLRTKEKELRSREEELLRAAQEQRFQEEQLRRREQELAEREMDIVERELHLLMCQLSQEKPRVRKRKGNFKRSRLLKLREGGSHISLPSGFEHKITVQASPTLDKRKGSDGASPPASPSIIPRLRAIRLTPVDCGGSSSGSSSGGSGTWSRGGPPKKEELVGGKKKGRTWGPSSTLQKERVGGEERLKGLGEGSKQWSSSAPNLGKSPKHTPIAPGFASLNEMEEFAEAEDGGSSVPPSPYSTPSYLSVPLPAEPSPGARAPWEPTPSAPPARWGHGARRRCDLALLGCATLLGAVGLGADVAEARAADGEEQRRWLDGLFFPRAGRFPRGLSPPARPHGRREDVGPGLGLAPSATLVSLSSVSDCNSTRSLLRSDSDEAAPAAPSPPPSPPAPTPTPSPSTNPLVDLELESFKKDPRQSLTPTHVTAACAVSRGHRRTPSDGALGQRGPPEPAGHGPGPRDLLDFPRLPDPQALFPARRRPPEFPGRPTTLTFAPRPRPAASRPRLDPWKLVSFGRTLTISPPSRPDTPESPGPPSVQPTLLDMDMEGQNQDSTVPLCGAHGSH
UniProt Q5TCQ9: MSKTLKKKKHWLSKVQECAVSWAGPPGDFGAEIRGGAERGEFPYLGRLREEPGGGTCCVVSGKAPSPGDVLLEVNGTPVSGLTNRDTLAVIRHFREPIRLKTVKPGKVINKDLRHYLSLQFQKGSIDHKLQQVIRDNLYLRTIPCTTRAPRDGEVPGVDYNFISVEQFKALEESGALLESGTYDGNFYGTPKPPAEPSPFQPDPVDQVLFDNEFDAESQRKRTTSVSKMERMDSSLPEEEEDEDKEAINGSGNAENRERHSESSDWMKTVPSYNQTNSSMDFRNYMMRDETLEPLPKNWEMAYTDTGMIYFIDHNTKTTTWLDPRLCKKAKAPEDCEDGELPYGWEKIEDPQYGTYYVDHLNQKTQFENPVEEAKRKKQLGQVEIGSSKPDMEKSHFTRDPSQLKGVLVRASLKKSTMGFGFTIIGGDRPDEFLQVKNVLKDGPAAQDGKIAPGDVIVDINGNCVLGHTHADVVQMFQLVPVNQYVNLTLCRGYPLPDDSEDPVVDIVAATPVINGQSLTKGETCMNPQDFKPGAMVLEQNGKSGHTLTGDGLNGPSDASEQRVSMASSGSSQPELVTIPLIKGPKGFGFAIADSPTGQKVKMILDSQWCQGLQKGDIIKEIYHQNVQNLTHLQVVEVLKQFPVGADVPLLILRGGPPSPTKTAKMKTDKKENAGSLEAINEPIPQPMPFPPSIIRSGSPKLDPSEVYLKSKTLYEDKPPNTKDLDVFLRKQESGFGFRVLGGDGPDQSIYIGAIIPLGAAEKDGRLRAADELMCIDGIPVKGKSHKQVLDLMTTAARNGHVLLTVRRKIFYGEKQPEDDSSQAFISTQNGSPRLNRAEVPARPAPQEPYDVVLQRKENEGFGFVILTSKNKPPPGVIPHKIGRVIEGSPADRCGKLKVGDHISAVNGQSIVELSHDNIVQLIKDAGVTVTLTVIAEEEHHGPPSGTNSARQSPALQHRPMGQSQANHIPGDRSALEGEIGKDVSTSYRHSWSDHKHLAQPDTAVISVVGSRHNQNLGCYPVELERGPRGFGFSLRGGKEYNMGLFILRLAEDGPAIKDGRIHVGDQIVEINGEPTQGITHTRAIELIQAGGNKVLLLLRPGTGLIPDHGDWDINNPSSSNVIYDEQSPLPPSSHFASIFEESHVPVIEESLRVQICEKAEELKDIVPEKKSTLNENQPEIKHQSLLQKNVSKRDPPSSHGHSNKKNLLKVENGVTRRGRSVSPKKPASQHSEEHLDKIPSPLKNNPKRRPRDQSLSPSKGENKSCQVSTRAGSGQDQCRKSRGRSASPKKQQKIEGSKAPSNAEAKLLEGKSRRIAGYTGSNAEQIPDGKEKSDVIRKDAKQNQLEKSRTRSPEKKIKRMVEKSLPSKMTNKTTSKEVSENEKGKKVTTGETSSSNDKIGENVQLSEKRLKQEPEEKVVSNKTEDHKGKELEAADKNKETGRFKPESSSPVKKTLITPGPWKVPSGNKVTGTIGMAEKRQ
UniProt P43355: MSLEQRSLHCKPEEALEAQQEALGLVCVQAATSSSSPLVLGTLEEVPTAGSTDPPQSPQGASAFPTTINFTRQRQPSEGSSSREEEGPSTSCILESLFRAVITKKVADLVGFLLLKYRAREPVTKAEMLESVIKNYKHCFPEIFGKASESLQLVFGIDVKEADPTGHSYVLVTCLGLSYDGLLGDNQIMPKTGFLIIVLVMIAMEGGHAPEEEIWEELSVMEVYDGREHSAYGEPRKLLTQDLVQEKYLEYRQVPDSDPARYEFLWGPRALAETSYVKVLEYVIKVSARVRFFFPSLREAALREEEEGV
UniProt Q9H8J5: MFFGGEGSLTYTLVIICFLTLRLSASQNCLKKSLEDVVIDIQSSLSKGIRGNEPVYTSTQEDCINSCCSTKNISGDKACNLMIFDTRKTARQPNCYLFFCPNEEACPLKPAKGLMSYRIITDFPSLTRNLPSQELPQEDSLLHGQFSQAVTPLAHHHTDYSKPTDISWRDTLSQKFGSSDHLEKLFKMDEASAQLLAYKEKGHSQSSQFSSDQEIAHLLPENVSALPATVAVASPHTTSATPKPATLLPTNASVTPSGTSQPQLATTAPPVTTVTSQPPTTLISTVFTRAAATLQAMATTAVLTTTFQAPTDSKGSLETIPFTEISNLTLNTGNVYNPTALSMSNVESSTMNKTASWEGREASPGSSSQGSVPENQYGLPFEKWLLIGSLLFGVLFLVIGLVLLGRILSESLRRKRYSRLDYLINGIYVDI
UniProt Q15759, whole entry, looked up: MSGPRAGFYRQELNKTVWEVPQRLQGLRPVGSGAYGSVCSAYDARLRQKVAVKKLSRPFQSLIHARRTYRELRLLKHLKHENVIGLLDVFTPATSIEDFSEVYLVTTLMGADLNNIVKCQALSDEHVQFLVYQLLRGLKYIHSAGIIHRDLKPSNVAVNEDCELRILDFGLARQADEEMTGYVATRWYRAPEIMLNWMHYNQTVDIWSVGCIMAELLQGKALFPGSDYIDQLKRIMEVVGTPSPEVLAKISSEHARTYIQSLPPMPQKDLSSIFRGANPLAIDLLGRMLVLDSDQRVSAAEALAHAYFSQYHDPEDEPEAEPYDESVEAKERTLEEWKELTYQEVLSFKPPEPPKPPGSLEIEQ
UniProt Q969L4: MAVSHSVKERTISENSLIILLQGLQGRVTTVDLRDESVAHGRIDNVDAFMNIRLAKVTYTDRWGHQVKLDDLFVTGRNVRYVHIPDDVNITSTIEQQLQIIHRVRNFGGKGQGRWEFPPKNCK
UniProt Q8IZL2, whole entry, looked up: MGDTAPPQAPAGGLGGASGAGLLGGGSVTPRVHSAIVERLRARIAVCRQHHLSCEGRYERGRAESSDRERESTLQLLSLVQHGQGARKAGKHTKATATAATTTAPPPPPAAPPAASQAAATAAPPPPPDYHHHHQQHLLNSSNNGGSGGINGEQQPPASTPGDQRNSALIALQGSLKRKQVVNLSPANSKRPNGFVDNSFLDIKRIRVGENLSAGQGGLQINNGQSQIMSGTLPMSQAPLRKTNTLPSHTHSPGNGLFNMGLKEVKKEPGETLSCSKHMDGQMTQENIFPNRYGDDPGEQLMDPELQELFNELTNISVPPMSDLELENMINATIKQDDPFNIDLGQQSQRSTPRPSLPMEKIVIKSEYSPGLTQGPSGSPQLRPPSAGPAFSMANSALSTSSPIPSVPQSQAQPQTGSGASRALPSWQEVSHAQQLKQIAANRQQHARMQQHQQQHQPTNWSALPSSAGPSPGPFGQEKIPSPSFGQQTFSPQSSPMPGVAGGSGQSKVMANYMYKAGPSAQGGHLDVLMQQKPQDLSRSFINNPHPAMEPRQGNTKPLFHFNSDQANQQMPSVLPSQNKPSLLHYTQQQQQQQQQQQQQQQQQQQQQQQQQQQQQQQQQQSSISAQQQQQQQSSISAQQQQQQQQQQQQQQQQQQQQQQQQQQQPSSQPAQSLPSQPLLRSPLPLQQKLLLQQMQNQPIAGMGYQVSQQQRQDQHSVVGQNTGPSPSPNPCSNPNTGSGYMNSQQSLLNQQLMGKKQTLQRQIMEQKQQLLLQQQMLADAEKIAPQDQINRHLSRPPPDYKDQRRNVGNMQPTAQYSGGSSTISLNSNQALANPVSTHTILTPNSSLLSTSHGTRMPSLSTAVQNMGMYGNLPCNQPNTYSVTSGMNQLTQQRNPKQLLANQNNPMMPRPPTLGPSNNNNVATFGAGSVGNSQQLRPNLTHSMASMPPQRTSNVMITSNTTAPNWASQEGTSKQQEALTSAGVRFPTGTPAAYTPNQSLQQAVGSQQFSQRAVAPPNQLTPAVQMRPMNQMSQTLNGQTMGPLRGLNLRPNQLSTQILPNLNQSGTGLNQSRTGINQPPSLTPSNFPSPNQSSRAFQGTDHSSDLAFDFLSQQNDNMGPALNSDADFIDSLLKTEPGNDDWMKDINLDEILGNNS
UniProt Q9C099: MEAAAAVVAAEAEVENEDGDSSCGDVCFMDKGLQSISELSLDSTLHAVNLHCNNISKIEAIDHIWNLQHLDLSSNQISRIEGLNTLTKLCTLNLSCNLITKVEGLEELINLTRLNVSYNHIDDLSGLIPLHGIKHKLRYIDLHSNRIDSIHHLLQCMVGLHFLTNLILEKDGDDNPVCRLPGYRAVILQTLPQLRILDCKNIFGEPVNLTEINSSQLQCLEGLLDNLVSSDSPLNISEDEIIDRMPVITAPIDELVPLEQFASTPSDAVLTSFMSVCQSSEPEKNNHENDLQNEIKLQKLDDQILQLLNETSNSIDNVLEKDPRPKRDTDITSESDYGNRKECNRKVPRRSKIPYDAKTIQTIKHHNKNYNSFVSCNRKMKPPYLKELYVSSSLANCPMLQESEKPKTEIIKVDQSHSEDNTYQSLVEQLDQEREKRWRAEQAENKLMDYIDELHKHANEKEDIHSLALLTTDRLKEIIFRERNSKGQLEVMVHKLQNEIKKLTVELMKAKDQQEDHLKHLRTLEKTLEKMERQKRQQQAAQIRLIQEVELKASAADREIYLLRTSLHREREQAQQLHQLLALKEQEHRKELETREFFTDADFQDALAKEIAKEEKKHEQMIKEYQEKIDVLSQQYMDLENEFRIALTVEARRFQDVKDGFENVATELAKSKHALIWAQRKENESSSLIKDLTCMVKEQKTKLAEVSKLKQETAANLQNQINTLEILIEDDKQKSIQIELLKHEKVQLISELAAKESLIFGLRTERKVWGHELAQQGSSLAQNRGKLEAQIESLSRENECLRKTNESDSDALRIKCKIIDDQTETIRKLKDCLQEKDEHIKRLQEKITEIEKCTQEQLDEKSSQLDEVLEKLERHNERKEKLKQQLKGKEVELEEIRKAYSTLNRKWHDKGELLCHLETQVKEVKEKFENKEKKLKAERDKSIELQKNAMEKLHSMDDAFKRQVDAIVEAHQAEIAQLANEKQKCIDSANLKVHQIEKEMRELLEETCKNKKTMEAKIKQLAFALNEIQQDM
UniProt O15525: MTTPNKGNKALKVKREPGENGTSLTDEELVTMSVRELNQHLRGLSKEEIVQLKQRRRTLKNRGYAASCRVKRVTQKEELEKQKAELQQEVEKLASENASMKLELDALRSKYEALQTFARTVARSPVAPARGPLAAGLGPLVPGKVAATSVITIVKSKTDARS

Legend:
Assay in all cases: log2 fold change, soluble protein after heating vs DMSO (PISA); higher = thermal stabilisation; K562 cells, 10 uM, 30 min; active = over 0.2 and 3.5 SD of the protein, either way, in both replicates (recomputed)
[1] = compound: CC[C@@H]1C(=O)N(C)c2cnc(Nc3ccc(C(=O)N[C@H]4CC[C@H](N5CCN(CC6CC6)CC5)CC4)cc3OC)nc2N1C(C)C [volasertib]
How it was run: (§1)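 Aliquots of K562 cells (2×10^6 cells/mL) treated with 10 μM compound for 30 min were heated for 3 min over 48°C-58°C. After pooling and extraction in PBS with 0.5% NP-40 at 4°C, soluble protein from a 21,000xg, 90 min spin was quantified by TMTpro 16plex LC-MS/MS with channel sums equalised. Thermal stability is expressed against control samples, from duplicates, as a log2 fold change.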

[2] = compound: CC[C@H](C)[C@@H](C(=O)N[C@@H]([C@@H](C)O)C(=O)N[C@@H](CC(C)C)C(=O)[C@]1(CO1)C)NC(=O)[C@H]([C@@H](C)CC)N(C)C(=O)C [epoxomicin]
How it was run: as §1

[3] = compound: CCn1c(C(=O)N(C2CC2)C2CC2)cc2c3c(ncn3C)c(Nc3cc(C)n(C)n3)nc21
How it was run: as §1

[4] = compound: CN(C)CC(=O)Nc1ccc2[nH]c(=O)c3ccccc3c2c1
How it was run: as §1

[5] = compound: CN(CCOC1=CC=C(C=C1)C[C@H]2C(=O)NC(=O)S2)C3=CC=CC=N3 (racemic) [rosiglitazone]
How it was run: as §1

[6] = compound: CC[C@H](C)N1C=C(C2=C(C=C(C=C21)C3=CN=C(C=C3)N4CCNCC4)C(=O)NCC5=C(C=C(NC5=O)C)C)C
How it was run: as §1

[7] = compound: CCn1cc(-c2ccnc3[nH]c(-c4cccc(CN(C)C)c4)cc23)c(-c2ccc(NC(=O)N(C)C)cc2)n1
How it was run: as §1

[8] = compound: CN1CCC(CNc2ccc3ncc(-c4cccc(OC(F)(F)F)c4)n3n2)CC1
How it was run: as §1

[9] = compound: CN1C2=C(C3=C1C(=O)N(N=C3)CC4=CC(=CC=C4)N)SC(=C2)S(=O)C
How it was run: as §1

[10] = compound: CC[C@@H]1C(=O)N(C)c2cnc(Nc3ccc(C(=O)NC4CCN(C)CC4)cc3OC)nc2N1C1CCCC1
How it was run: as §1

Measured: log2 fold change

MAPT isoform 9 (UniProt P10636)
inactive: [1] 0 | [2] -0.094 | [3] 0.063 | [4] -0.081 | [5] 0.017

MAP4K5 (UniProt Q9Y4K4)
inactive: [1] -0.135 | [6] -0.004 | [2] -0.014 | [7] -0.126 | [4] -0.026 | [8] 0.051

MAP2K5 (UniProt Q13163)
inactive: [9] 0.457

MAGED1 isoform 2 (UniProt Q9Y5V3)
inactive: [1] -0.306 | [6] -0.01 | [2] -0.053 | [4] 0.012 | [9] 0.399

LRRC8B (UniProt Q6P9F7)
inactive: [1] 0.304 | [6] 0.029 | [2] 0.005 | [3] -0.041 | [5] 0.024 | [9] -0.002

MAPKAP1 (UniProt Q9BPZ7)
inactive: [2] 0.372 | [7] -0.114 | [8] -0.12

LSR (UniProt M0QZL9)
inactive: [2] 0.076 | [4] -0.125

MAPK7 (UniProt Q13164)
inactive: [2] 0.093 | [7] -0.049 | [8] -0.125

MAP3K10 (UniProt Q02779)
inactive: [1] 0.075 | [7] -0.015 | [4] 0.059 | [5] 0.033 | [8] 0.081

MAGI3 isoform 1 (UniProt Q5TCQ9)
inactive: [10] 0.092 | [2] -0.029 | [4] 0.006 | [5] -0.193 | [9] 0.205

MAGEA1 (UniProt P43355)
inactive: [1] -0.45 | [6] 0.094 | [2] 0.174 | [3] -0.046 | [7] 0.127 | [5] 0.039 | [8] -0.008

MANSC1 (UniProt Q9H8J5)
inactive: [6] 0.162

MAPK11 (UniProt Q15759)
inactive: [7] 0.025 | [8] -0.263

MAN2B1 (UniProt M0QYZ1)
inactive: [1] -0.06 | [2] -0.194

3 successive entries from above:
MAP3K10 (UniProt Q02779)
inactive: [1] 0.075 | [7] -0.015 | [4] 0.059 | [5] 0.033 | [8] 0.081

MAGI3 isoform 1 (UniProt Q5TCQ9)
inactive: [10] 0.092 | [2] -0.029 | [4] 0.006 | [5] -0.193 | [9] 0.205

MAGEA1 (UniProt P43355)
inactive: [1] -0.45 | [6] 0.094 | [2] 0.174 | [3] -0.046 | [7] 0.127 | [5] 0.039 | [8] -0.008

The list goes on:

LSM10 (UniProt Q969L4)
inactive: [1] -0.025 | [6] 0.105 | [3] -0.176 | [5] -0.375 | [9] -0.533

MAML2 (UniProt Q8IZL2)
inactive: [3] -0.062

LSR isoform 3 (UniProt Q86X29)
inactive: [1] -0.096 | [9] 0.047

LRRCC1 (UniProt Q9C099)
inactive: [9] 0.281

LRRFIP1 isoform 4 (UniProt Q32MZ4)
inactive: [2] -0.113 | [7] 0.212 | [9] 0.105 | [8] 0.349

MAFG (UniProt O15525)
inactive: [2] 0.099 | [7] 0.024 | [4] -0.125 | [8] 0.083
